This assay deals with T1, NCAM2 at the cell surface of cultured mouse hippocampal neurons (mouse (endogenous in cultured hippocampal neurons)) (UniProt O35136).
T1 sequence: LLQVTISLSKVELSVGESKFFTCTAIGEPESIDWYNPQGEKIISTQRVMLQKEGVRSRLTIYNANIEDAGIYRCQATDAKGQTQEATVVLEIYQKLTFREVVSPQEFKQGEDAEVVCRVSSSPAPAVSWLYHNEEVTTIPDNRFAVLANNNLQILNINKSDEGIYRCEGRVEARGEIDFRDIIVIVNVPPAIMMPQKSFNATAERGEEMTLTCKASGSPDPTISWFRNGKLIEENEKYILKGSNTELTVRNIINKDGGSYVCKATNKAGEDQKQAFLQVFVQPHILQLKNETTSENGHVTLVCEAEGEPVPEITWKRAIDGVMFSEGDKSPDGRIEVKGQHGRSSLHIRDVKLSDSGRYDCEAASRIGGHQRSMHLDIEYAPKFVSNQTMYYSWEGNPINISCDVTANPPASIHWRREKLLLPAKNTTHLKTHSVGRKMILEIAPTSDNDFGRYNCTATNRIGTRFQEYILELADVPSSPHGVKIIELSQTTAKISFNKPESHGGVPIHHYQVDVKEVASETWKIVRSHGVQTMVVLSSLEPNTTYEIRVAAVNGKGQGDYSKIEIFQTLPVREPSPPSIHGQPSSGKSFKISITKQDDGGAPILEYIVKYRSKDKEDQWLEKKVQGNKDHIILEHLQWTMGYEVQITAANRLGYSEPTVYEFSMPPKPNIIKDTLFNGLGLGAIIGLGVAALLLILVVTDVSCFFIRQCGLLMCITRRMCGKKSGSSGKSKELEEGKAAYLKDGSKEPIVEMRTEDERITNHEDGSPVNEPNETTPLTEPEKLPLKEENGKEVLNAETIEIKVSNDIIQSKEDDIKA
Description: proximity ligation; mock-treated cultured mouse hippocampal neurons, fixed, not permeabilized; antibodies against Aβ1-42 (sc-28365) and the extracellular domain of NCAM2.

By UniProt entry, the sequences of proteins in these tests, tags left out. Residues count along the entry.
UniProt P12023, residues 18-770: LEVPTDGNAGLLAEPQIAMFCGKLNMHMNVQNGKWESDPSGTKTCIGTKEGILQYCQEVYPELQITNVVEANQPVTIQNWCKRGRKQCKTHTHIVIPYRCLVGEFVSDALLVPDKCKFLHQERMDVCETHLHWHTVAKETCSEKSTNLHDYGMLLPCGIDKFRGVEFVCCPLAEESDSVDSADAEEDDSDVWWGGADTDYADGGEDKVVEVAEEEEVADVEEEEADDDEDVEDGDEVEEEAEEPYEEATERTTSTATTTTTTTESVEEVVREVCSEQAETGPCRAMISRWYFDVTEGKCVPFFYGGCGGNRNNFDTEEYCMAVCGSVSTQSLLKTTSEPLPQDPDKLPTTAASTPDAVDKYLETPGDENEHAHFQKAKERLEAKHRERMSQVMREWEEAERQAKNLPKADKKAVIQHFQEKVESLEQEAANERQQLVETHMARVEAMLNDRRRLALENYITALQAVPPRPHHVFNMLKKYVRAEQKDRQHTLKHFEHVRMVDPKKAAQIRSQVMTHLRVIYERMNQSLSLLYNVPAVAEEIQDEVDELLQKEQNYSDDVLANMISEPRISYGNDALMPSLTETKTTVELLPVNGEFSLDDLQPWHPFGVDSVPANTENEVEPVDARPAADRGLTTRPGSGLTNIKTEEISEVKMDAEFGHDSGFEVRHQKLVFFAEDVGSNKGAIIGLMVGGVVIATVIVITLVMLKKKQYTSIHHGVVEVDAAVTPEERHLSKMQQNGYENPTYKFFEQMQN

No constants are given. Whether binding was seen depends on the method and setting. In cells and extracts the contact can be indirect. Some entries that bind do so weakly or less than the wild type.

“endogenous APP in cultured mouse hippocampal neurons (from UniProt P12023 18-770)”: the binding entry is “binds weakly”.

For the origin of these results see paper PMC4674770.
